Results published in the supplement of paper PMC10849652.
Some of the results follow. Residues, ends and D or L forms follow the SMILES beside them. *: point of attachment. Cbz = O=C(OCc1ccccc1)*

Protein sequences, listed by entry. Tags and fused reporters are not part of them. Lines headed by an entry give the natural chain unless they say otherwise; changes in a name come on top.
UniProt P61163, whole entry, looked up: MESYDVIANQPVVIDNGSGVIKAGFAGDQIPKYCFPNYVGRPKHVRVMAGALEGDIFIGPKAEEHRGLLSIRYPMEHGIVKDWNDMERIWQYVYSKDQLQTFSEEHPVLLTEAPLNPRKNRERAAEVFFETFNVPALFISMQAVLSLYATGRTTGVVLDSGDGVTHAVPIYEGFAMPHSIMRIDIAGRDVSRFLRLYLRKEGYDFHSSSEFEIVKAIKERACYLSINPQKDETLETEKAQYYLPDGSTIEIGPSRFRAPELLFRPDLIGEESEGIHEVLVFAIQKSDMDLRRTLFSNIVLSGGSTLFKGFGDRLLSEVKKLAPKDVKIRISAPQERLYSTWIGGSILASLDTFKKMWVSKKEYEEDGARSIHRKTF
UniProt O96019, whole entry, looked up: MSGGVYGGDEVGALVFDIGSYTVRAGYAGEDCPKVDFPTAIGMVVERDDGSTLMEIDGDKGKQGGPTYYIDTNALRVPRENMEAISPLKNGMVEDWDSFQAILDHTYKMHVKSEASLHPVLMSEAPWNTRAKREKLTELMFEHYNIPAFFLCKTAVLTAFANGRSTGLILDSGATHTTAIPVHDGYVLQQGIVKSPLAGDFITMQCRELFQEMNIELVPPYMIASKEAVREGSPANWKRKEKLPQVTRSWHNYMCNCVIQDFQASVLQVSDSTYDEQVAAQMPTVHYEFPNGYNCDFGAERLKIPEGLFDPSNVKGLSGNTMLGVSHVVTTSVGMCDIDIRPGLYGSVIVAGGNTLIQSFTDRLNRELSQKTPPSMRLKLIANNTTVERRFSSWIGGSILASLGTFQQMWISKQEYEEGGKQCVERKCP
UniProt O14672: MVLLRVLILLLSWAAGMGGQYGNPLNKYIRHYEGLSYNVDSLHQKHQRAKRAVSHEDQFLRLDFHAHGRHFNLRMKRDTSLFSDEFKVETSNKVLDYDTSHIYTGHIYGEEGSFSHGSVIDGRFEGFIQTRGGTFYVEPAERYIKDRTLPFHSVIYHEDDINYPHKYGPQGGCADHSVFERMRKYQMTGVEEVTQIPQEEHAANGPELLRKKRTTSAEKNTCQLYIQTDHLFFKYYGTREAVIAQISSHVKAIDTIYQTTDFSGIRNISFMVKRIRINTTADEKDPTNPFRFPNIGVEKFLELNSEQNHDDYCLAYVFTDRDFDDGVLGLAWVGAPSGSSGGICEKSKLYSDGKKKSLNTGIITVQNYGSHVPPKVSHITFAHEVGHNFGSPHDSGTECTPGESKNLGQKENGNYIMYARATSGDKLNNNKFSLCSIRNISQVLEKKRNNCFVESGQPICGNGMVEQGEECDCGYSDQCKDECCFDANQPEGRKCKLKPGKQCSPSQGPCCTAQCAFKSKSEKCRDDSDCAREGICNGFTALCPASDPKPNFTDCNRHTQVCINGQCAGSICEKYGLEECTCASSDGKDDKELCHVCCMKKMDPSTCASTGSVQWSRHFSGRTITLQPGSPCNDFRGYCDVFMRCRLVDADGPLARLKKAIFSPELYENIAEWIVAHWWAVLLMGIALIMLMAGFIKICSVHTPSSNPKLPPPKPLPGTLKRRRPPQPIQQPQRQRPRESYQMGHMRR
UniProt Q9UG63: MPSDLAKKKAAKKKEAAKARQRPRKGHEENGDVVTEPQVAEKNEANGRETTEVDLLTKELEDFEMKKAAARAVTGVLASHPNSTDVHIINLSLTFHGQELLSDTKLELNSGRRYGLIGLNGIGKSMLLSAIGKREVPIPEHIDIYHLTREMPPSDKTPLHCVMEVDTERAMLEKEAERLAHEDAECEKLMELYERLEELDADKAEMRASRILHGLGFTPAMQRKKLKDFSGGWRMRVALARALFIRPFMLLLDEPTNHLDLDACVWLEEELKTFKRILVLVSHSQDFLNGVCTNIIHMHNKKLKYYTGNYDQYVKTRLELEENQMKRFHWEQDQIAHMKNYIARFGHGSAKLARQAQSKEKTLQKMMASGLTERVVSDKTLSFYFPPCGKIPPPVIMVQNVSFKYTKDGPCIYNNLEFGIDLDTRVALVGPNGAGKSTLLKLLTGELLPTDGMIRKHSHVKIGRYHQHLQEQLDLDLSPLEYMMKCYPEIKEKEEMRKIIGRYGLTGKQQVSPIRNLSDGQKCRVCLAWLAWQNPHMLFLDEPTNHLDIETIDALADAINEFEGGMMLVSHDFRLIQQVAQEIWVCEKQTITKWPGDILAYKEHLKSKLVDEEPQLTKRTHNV
UniProt P24752: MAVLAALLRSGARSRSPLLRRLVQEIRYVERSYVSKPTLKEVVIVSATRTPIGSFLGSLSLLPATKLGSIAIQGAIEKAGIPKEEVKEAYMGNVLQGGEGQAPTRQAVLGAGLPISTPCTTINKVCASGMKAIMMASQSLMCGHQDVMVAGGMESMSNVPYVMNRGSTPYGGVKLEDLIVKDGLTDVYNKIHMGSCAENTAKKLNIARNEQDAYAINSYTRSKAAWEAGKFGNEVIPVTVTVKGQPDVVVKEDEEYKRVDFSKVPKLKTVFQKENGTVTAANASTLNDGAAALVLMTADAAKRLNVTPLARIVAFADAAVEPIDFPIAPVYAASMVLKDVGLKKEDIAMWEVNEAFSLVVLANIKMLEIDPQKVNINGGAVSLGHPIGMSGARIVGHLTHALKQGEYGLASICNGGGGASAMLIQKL
UniProt O14678: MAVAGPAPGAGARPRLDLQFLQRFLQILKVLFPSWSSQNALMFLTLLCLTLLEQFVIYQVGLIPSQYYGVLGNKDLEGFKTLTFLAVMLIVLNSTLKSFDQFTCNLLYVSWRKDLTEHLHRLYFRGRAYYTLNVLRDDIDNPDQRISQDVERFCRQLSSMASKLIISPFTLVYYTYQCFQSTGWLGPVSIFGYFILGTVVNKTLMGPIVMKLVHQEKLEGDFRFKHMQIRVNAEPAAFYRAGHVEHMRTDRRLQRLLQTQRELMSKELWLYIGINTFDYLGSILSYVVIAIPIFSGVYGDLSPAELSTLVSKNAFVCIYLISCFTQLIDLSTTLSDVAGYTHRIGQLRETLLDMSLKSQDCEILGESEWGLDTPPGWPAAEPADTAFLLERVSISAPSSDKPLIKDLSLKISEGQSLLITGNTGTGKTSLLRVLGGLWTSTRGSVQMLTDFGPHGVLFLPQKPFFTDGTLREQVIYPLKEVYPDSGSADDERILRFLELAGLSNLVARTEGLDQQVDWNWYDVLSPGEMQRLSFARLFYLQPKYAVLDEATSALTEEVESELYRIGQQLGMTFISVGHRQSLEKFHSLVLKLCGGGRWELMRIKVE
UniProt Q8IZP0: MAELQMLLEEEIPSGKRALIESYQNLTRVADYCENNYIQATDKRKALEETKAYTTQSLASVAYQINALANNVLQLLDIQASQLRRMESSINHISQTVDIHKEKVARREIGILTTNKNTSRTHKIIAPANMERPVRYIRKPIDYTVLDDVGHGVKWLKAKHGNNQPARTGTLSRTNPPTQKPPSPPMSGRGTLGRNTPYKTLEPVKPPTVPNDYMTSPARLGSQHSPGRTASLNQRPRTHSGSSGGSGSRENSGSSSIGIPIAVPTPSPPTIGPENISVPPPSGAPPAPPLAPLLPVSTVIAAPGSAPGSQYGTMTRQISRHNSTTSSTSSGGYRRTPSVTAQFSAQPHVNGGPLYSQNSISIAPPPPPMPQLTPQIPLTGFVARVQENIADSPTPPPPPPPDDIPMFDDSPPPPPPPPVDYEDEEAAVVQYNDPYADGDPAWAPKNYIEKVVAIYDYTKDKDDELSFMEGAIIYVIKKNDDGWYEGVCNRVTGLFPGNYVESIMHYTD
UniProt Q9NZ32, whole entry, looked up: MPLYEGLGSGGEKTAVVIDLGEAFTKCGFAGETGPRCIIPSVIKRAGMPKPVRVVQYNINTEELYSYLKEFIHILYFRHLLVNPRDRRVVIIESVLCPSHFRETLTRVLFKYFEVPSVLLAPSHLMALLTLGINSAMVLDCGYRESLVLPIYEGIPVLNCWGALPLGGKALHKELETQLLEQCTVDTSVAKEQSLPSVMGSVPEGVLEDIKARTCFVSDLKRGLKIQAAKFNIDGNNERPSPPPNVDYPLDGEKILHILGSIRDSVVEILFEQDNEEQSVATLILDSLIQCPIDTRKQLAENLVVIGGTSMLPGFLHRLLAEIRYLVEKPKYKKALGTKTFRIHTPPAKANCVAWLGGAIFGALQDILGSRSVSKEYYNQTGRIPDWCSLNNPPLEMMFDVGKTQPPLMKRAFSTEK
UniProt Q9GZN1, whole entry, looked up: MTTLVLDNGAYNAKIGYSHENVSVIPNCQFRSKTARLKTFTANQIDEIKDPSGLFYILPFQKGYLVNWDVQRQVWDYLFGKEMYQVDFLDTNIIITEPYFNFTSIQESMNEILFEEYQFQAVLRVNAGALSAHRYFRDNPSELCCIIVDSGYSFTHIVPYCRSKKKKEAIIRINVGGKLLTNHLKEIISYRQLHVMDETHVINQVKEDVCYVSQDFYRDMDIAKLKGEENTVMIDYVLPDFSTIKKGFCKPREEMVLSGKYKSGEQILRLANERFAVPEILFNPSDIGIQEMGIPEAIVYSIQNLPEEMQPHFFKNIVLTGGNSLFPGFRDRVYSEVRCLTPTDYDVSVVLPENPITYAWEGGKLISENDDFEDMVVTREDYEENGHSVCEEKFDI
UniProt P78536: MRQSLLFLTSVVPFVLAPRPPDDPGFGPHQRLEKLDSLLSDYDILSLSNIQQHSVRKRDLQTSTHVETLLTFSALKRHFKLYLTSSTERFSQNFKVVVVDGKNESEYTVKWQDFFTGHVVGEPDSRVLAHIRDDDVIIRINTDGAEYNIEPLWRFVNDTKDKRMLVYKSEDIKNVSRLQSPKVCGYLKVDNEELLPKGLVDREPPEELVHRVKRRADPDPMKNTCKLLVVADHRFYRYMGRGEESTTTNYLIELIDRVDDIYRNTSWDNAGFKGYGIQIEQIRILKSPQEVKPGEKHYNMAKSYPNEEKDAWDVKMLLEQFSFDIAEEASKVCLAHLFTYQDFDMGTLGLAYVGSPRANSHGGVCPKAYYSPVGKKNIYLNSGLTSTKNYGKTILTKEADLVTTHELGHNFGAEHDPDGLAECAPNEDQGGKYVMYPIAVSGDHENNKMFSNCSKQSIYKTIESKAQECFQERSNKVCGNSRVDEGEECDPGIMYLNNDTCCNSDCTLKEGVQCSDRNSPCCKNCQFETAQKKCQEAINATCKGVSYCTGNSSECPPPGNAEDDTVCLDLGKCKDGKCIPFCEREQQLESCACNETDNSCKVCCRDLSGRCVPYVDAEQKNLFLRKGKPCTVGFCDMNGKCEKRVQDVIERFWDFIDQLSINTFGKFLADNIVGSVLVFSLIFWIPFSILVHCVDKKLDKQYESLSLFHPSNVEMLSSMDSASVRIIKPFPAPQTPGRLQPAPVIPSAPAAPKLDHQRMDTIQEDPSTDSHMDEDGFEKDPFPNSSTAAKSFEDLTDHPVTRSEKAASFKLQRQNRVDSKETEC
UniProt P28288: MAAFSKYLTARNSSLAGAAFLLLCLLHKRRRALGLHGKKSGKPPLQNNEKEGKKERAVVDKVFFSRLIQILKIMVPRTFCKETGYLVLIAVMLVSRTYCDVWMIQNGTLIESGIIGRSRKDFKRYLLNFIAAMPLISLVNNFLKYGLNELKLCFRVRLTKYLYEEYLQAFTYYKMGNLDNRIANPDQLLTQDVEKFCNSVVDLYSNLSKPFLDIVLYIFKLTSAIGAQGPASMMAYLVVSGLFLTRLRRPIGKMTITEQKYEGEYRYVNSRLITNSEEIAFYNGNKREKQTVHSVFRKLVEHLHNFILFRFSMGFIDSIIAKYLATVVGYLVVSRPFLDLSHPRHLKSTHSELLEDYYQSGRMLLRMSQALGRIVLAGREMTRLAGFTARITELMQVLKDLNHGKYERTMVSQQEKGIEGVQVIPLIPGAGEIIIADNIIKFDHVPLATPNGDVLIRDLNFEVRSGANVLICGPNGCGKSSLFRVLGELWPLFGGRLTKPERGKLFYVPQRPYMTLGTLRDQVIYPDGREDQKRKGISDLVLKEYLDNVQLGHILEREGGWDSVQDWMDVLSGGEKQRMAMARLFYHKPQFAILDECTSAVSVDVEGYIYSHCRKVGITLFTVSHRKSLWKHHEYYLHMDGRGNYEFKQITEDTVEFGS
UniProt P42765: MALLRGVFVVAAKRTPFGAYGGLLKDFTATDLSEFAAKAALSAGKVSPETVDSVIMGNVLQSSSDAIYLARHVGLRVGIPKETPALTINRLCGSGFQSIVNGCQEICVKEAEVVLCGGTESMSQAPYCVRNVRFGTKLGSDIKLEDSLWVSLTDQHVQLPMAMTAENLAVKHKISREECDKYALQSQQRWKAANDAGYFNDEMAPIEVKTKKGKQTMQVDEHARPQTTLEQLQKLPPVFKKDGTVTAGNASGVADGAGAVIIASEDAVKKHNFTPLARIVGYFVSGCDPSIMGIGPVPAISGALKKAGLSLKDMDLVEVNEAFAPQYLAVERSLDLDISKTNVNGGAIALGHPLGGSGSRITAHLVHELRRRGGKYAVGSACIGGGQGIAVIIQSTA

Legend:
Assay in all cases: log2 fold change, soluble protein after heating vs DMSO (PISA); higher = thermal stabilisation; K562 cells, 10 uM, 30 min; active = over 0.2 and 3.5 SD of the protein, either way, in both replicates (recomputed)
erlotinib = compound: C#Cc1cccc(Nc2ncnc3cc(OCCOC)c(OCCOC)cc23)c1 [erlotinib]
How it was run: (§1)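 Aliquots of K562 cells (2×10^6 cells/mL) treated with 10 μM compound for 30 min were heated for 3 min over 48°C-58°C. After pooling and extraction in PBS with 0.5% NP-40 at 4°C, soluble protein from a 21,000xg, 90 min spin was quantified by TMTpro 16plex LC-MS/MS with channel sums equalised. Thermal stability is expressed against control samples, from duplicates, as a log2 fold change.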

[1] = compound: C/C(=N\NC(=O)C1=CC(=CC=C1)S(=O)(=O)N2CCOCC2)/C3=C(C=CC(=C3)Cl)O
How it was run: as §1

[2] = compound: C1=CC(=C(C=C1Cl)C2=NC3=NC=CN=C3C(=N2)NC4=CC=NC=C4)F
How it was run: as §1

[3] = compound: C1=CC(=CC=C1C2=NC3=C(N2)C=C(C=C3)C(=O)N)OC4=CC=C(C=C4)Cl
How it was run: as §1

[4] = compound: C1=CC2=C(C=CC(=C2)/C=C\3/C(=O)NC(=NCC4=CC=CS4)S3)N=C1
How it was run: as §1

[5] = compound: C1=CC2=NC=CN=C2C=C1/C=C/3\C(=O)NC(=O)S3
How it was run: as §1

[6] = compound: C1=CC=C(C=C1)C2=NC(=C(N2)C3=CC=NC=C3)C4=CC(=C(C=C4)Cl)O
How it was run: as §1

[7] = compound: C1=CC=C2C(=C1)C3=NNC4=CC=CC(=C43)C2=O
How it was run: as §1

[8] = compound: C1CCN(C1)C(=O)NC2=CC=CC(=C2)NC3=NC=C(C(=N3)NCCC4=CN=CN4)Br
How it was run: as §1

[9] = compound: C1CN(CCC1(CC2=CC=C(C=C2)Cl)N)C3=NC=NC4=C3C=CN4
How it was run: as §1

IRAK-1-4 Inhibitor I = compound: C1COCCN1CCN2C3=CC=CC=C3N=C2NC(=O)C4=CC(=CC=C4)[N+](=O)[O-] [IRAK-1-4 Inhibitor I]
How it was run: as §1

ibrutinib = compound: C=CC(=O)N1CCC[C@@H](n2nc(-c3ccc(Oc4ccccc4)cc3)c3c(N)ncnc32)C1 [ibrutinib]
How it was run: as §1

[10] = compound: CC(=O)c1cnc2ccc(-c3cc(Cl)c(O)c(Cl)c3)nc2c1N[C@H]1CC[C@H](CN(C)C)CC1
How it was run: as §1

ralimetinib = compound: CC(C)(C)Cn1c(N)nc2ccc(-c3[nH]c(C(C)(C)C)nc3-c3ccc(F)cc3)nc21 [ralimetinib]
How it was run: as §1

[11] = compound: CC(C)(O)CC(=O)NCCn1ccc2ncnc(Nc3ccc(Oc4cccc(C(F)(F)F)c4)c(Cl)c3)c21
How it was run: as §1

[12] = compound: CC(C)C1=C2N=C(C=C(N2N=C1)NCC3=CC=CC=C3)NCCCCCCN
How it was run: as §1

[13] = compound: CC(C)C[C@@H](C=O)NC(=O)[C@H](CC(C)C)NC(=O)[C@H](CC(C)C)NC(=O)OCc1ccccc1
How it was run: as §1

pinometostat = compound: CC(C)N(C[C@H]1O[C@@H](n2cnc3c(N)ncnc32)[C@H](O)[C@@H]1O)[C@H]1C[C@@H](CCc2nc3cc(C(C)(C)C)ccc3[nH]2)C1 [pinometostat]
How it was run: as §1

[14] = compound: CC1=C(C(CC(=O)N1)C2=CC=C(C=C2)C(F)(F)F)C(=O)NC3=C(C=C4C(=C3)C=NN4)F
How it was run: as §1

[15] = compound: CC1=C(C2=C(C=C1)C(=O)C3=CC=CC=C3N2CCCN)C
How it was run: as §1

Measured: log2 fold change

ACTR1A (UniProt P61163)
inactive: erlotinib -0.037 | [1] 0.01 | [2] 0.012 | [3] -0.002 | [4] 0.017 | [5] 0.021 | [6] 0.007 | [7] -0.008 | [8] 0.034 | [9] 0.002 | IRAK-1-4 Inhibitor I 0.019 | ibrutinib 0.012 | [10] 0.044 | ralimetinib -0.011 | [11] -0.005 | [12] 0.033 | [13] -0.003 | pinometostat -0.028 | [14] -0.009 | [15] -0.012

ACTL6A (UniProt O96019)
inactive: erlotinib -0.01 | [1] 0.004 | [2] 0 | [3] 0.057 | [4] 0.043 | [5] 0.015 | [6] 0.006 | [7] 0.016 | [8] -0.03 | [9] 0.01 | IRAK-1-4 Inhibitor I 0.035 | ibrutinib 0.009 | [10] -0.007 | ralimetinib -0.012 | [11] -0.029 | [12] 0.012 | [13] -0.018 | pinometostat 0.012 | [14] -0.01 | [15] 0.035

ACTA1 (UniProt P68133)
inactive: erlotinib 0.01 | [1] -0.029 | [2] 0.027 | [3] 0.001 | [4] -0.011 | [5] -0.015 | [6] -0.052 | [7] 0.011 | [8] 0.025 | [9] 0.064 | IRAK-1-4 Inhibitor I 0.071 | ibrutinib 0.027 | [10] 0 | ralimetinib -0.032 | [11] 0.034 | [12] 0.092 | [13] -0.053 | pinometostat -0.041 | [14] 0.015 | [15] 0.007

ADAM10 (UniProt O14672)
inactive: erlotinib -0.019 | [1] -0.019 | [2] -0.016 | [3] 0.038 | [4] -0.027 | [5] -0.01 | [6] -0.011 | [7] -0.075 | [8] -0.014 | [9] -0.002 | IRAK-1-4 Inhibitor I -0.005 | ibrutinib 0.013 | [10] 0 | ralimetinib -0.013 | [11] 0.028 | [12] 0.011 | [13] 0.032 | pinometostat 0.021 | [14] -0.019 | [15] 0.016

ABCF2 isoform 2 (UniProt Q9UG63)
inactive: erlotinib -0.005 | [1] -0.007 | [2] -0.023 | [3] 0.011 | [4] 0.02 | [5] -0.005 | [6] -0.039 | [7] -0.008 | [8] 0.017 | [9] -0.011 | IRAK-1-4 Inhibitor I -0.006 | ibrutinib -0.003 | [10] 0.02 | ralimetinib -0.017 | [11] -0.065 | [12] -0.038 | [13] 0.016 | pinometostat 0.014 | [14] -0.043 | [15] 0.143

ACAT1 (UniProt P24752)
inactive: erlotinib -0.059 | [1] -0.016 | [2] 0.053 | [3] -0.047 | [4] 0.015 | [5] -0.058 | [6] -0.049 | [7] -0.011 | [8] -0.04 | [9] -0.007 | IRAK-1-4 Inhibitor I 0.027 | ibrutinib -0.025 | [10] -0.029 | ralimetinib -0.058 | [11] 0.015 | [12] 0.056 | [13] -0.034 | pinometostat -0.039 | [14] 0.014 | [15] -0.015

ABCD4 (UniProt O14678)
inactive: erlotinib 0.016 | [1] 0.103 | [2] 0.043 | [3] 0.066 | [4] 0.136 | [5] -0.124 | [6] 0.084 | [7] -0.022 | [8] -0.092 | [9] 0.184 | IRAK-1-4 Inhibitor I 0.177 | ibrutinib -0.182 | [10] -0.17 | ralimetinib 0.108 | [11] -0.113 | [12] -0.319 | [13] -0.088 | pinometostat 0.064 | [14] 0.091 | [15] -0.053

ABI1 (UniProt Q8IZP0)
inactive: erlotinib -0.041 | [1] 0.153 | [2] 0.024 | [3] 0.046 | [4] -0.02 | [5] 0.048 | [6] -0.019 | [7] 0.025 | [8] -0.082 | [9] 0.006 | IRAK-1-4 Inhibitor I -0.003 | ibrutinib 0.048 | [10] -0.059 | ralimetinib 0.009 | [11] 0.014 | [12] -0.065 | [13] 0.048 | pinometostat 0 | [14] 0.014 | [15] 0.042

ACTR10 (UniProt Q9NZ32)
inactive: erlotinib 0.003 | [1] 0.014 | [2] -0.021 | [3] -0.027 | [4] 0.025 | [5] 0.047 | [6] -0.014 | [7] -0.028 | [8] 0.055 | [9] -0.037 | IRAK-1-4 Inhibitor I -0.031 | ibrutinib -0.004 | [10] 0.034 | ralimetinib 0.011 | [11] 0.04 | [12] 0.049 | [13] 0.009 | pinometostat -0.038 | [14] 0.029 | [15] -0.03

ACTR6 (UniProt Q9GZN1)
inactive: erlotinib 0.014 | [1] 0.026 | [2] 0.059 | [3] 0.018 | [4] 0.022 | [5] -0.133 | [6] -0.133 | [7] -0.045 | [8] -0.049 | [9] 0.023 | IRAK-1-4 Inhibitor I 0.041 | ibrutinib 0.032 | [10] -0.043 | ralimetinib 0.066 | [11] 0.06 | [12] -0.021 | [13] -0.081 | pinometostat 0.073 | [14] 0.011 | [15] -0.023

ADAM17 (UniProt P78536)
inactive: erlotinib 0.007 | [1] -0.008 | [2] -0.015 | [3] 0.02 | [4] 0.013 | [5] 0.037 | [6] -0.054 | [7] -0.046 | [8] -0.027 | [9] 0.034 | IRAK-1-4 Inhibitor I 0.009 | ibrutinib 0 | [10] 0.022 | ralimetinib 0.024 | [11] 0.035 | [12] 0.005 | [13] 0.01 | pinometostat 0.046 | [14] -0.022 | [15] -0.024

ABCD3 (UniProt P28288)
inactive: erlotinib -0.025 | [1] 0.016 | [2] -0.001 | [3] 0.018 | [4] 0.049 | [5] 0.048 | [6] 0.026 | [7] -0.018 | [8] -0.005 | [9] 0.024 | IRAK-1-4 Inhibitor I 0.006 | ibrutinib -0.019 | [10] 0.017 | ralimetinib -0.016 | [11] 0.079 | [12] 0.211 | [13] -0.05 | pinometostat 0.006 | [14] -0.026 | [15] 0.091

ACAA2 (UniProt P42765)
inactive: erlotinib 0.002 | [1] 0.015 | [2] 0.072 | [3] 0 | [4] -0.017 | [5] 0.003 | [6] -0.025 | [7] 0.006 | [8] -0.008 | [9] 0.022 | IRAK-1-4 Inhibitor I -0.015 | ibrutinib 0.019 | [10] -0.003 | ralimetinib -0.042 | [11] -0.011 | [12] 0.029 | [13] -0.032 | pinometostat -0.03 | [14] 0.014 | [15] 0.029

ACTB, A0A2R8Y793
inactive: erlotinib 0.015 | [1] -0.015 | [2] 0.074 | [3] 0.062 | [4] -0.02 | [5] -0.086 | [6] 0.034 | [7] 0.026 | [8] -0.006 | [9] 0.065 | IRAK-1-4 Inhibitor I 0.045 | ibrutinib 0.092 | [10] -0.003 | ralimetinib 0.064 | [11] -0.004 | [12] 0.084 | [13] -0.034 | pinometostat -0.054 | [14] 0.042 | [15] -0.011

ABRAXAS2 (UniProt Q15018)
inactive: erlotinib 0.011 | [1] -0.021 | [2] 0.041 | [3] 0.008 | [4] 0.028 | [5] 0.015 | [6] -0.008 | [7] -0.006 | [8] 0.01 | [9] 0.04 | IRAK-1-4 Inhibitor I 0.047 | ibrutinib 0.053 | [10] 0.008 | ralimetinib -0.003 | [11] 0.005 | [12] 0.073 | [13] -0.032 | pinometostat -0.018 | [14] 0.068 | [15] 0.036

ADAT2 (UniProt Q7Z6V5)
inactive: erlotinib 0.06 | [1] 0.131 | [2] 0.057 | [3] 0.009 | [4] -0.022 | [5] 0.002 | [6] 0.023 | [7] 0.089 | [8] 0.074 | [9] 0.072 | IRAK-1-4 Inhibitor I -0.009 | ibrutinib 0.001 | [10] 0.012 | ralimetinib -0.052 | [11] 0.017 | [12] -0.016 | [13] -0.027 | pinometostat -0.059 | [14] 0.004 | [15] -0.023

Two entries picked at random from those above, as already listed:
ACAA2 (UniProt P42765)
inactive: erlotinib 0.002 | [1] 0.015 | [2] 0.072 | [3] 0 | [4] -0.017 | [5] 0.003 | [6] -0.025 | [7] 0.006 | [8] -0.008 | [9] 0.022 | IRAK-1-4 Inhibitor I -0.015 | ibrutinib 0.019 | [10] -0.003 | ralimetinib -0.042 | [11] -0.011 | [12] 0.029 | [13] -0.032 | pinometostat -0.03 | [14] 0.014 | [15] 0.029

ADAT2 (UniProt Q7Z6V5)
inactive: erlotinib 0.06 | [1] 0.131 | [2] 0.057 | [3] 0.009 | [4] -0.022 | [5] 0.002 | [6] 0.023 | [7] 0.089 | [8] 0.074 | [9] 0.072 | IRAK-1-4 Inhibitor I -0.009 | ibrutinib 0.001 | [10] 0.012 | ralimetinib -0.052 | [11] 0.017 | [12] -0.016 | [13] -0.027 | pinometostat -0.059 | [14] 0.004 | [15] -0.023
